Our source for the survivor count and T/C values is PubChem BioAssay AID204 (DTP/NCI, 2004).

The test relates to BDF1 mice, P288 methotrexate-resistant leukemia, survival T/C. The test is described as follows: NCI In Vivo Anticancer Drug Screen. Data for tumor model P288 Lymphocytic Leukemia resistant to methotrexate; NSC 740 (intraperitoneal) in B6D2F1 (BDF1) mice. The following applies: T/C endpoint: median survival time, higher T/C = longer survival. As to the method:
The antitumor activity of compounds was measured in mice bearing transplantable tumors. Survival or tumor size were measured and the results are expressed as the measurement made in the treated group (T) divided by the measurement made in the vehicle treated control group (C). The tumor model used in this assay is P288 Lymphocytic Leukemia resistant to methotrexate; NSC 740 (intraperitoneal) in B6D2F1 (BDF1) mice

[1] abbreviates: dose: 12.5 mg/kg/injection, schedule: Q01DX010 (ip), vehicle: saline.
Setting [2] is: dose: 25.0 mg/kg/injection, schedule: Q01DX010 (ip), vehicle: saline.
Setting [3] is: dose: 20.0 mg/kg/injection, schedule: Q01DX010 (ip), vehicle: saline.
Where [4] appears, read: dose: 40.0 mg/kg/injection, schedule: Q01DX010 (ip), vehicle: saline.
Where [5] appears, read: dose: 80.0 mg/kg/injection, schedule: Q01DX010 (ip), vehicle: saline.
[6] abbreviates: dose: 120.0 mg/kg/injection, schedule: Q01DX010 (ip), vehicle: saline.
Setting [7] is: dose: 1.0 mg/kg/injection, schedule: Q01DX010 (ip), vehicle: saline.
[8] abbreviates: dose: 2.0 mg/kg/injection, schedule: Q01DX010 (ip), vehicle: saline.
[9] abbreviates: dose: 4.0 mg/kg/injection, schedule: Q01DX010 (ip), vehicle: saline.
The mark [10] stands for this setting: dose: 125.0 mg/kg/injection, schedule: Q01DX010 (ip), vehicle: saline.
Where [11] appears, read: dose: 250.0 mg/kg/injection, schedule: Q01DX010 (ip), vehicle: saline.
Setting [12] is: dose: 50.0 mg/kg/injection, schedule: Q01DX010 (ip), vehicle: saline.
Setting [13] is: dose: 100.0 mg/kg/injection, schedule: Q01DX010 (ip), vehicle: saline.
Setting [14] is: dose: 5.0 mg/kg/injection, schedule: Q01DX010 (ip), vehicle: saline.
[15] abbreviates: dose: 10.0 mg/kg/injection, schedule: Q01DX010 (ip), vehicle: saline.
Setting [16] is: dose: 1.5 mg/kg/injection, schedule: Q01DX010 (ip), vehicle: saline.
The mark [17] stands for this setting: dose: 8.0 mg/kg/injection, schedule: Q01DX010 (ip), vehicle: saline.

The list is a part of this screen's results and no random one: it gathers tests that were run many times, whatever their T/C, doses with no T/C, and many T/C values between a quarter and a half above the control. Further doses and runs are listed elsewhere. T/C: endpoint of the treated group in % of that of the vehicle group. Some doses have a count of surviving animals in place of a T/C: the source files T/C as zero there, which appears to mark a toxic dose or a test without result, not a measured value. Some doses without a T/C left all or most animals alive at the check, yet need not have been tolerated: the source hardly ever lists a survival T/C far under the control, and the zero likely stands for such cases as well. Survivors were counted at the toxicity check, usually on the fifth day, unless a day is given; later deaths do not show. Schedule codes are those of the source, taken here to give the interval after Q, in days (D) or hours (H), and the number of doses after X. Some doses were run more than once; the values are given in rising order. Some molecules as drawn cover several salts, stereoisomers or complexes of the source; a dose is that of the sample tested. Where survival is the endpoint, the PubChem record calls one and a half times the control and up active, and a quarter to a half above the control has no call in these data; cut-offs in other NCI protocols can differ. Brackets with × count equal records among those shown. Some T/C values are followed by the survivors on the day toxicity was checked, most often the fifth; without a count, all were alive then. Starred links: 1 amine or outer side, 2 acyl side, 3 side chain; linkers in the order of their positions; H or OH if unused. Positions of bridges follow the written chain, without caps; N, C: chain ends. Non-standard residues stand in square brackets, D forms with d. Residues, ends and D or L forms follow the SMILES beside them. Chains are numbered I, II in the order given. Actinocin(9to1) = Cc1c2oc3c(C)ccc(C(=O)[*:1])c3nc-2c(C(=O)[*:2])c(N)c1=O; aThr = C[C@H](O)[C@H](N)C(=O)O; NMeV = CN[C@H](C(=O)O)C(C)C; Sar = CNCC(=O)O

Consider `O=C(O)CCCc1ccc(N(CCCl)CCCl)cc1`, for which the survivor count reads like this: under setting [1], 6 of 6; under setting [2], 0 of 6 and 5 of 6.
On to `Cc1cc(N(CCCl)CCCl)ccc1N=Nc1ccccc1C(=O)O`, for which the T/C under setting [3] was 131 % of control. The survivor count under setting [4] was 6 of 6.
In the case of `CN(C)c1ccc(Nc2c3ccccc3nc3ccccc23)cc1`, the T/C under setting [5] is 129 and 134 % of control. The survivor count under setting [6] is reported as 6 of 6.
`N#CCSc1ncnc2nc[nH]c12`: the survivor count is given as 6 of 6 under setting [6] and 0 of 6 (dose: 240.0 mg/kg/injection, schedule: Q01DX010 (ip), vehicle: saline).
Regarding `NC(Cc1c[nH]c2ccc(N(CCCl)CCCl)cc12)C(=O)O` (stereo unspecified), the T/C is, setting by setting: under setting [7], 127 % of control; under setting [8], 145 % of control; under setting [9], 145 % of control.
For `CCOC(N)=O`, the survivor count under setting [10] is given as 5 of 6.
For `CC/C(=C(/CC)c1ccc(O)cc1)c1ccc(O)cc1`, the survivor count (dose: 25.0 mg/kg/injection, schedule: Q01DX010 (sc), vehicle: steroid suspending solution) is 6 of 10.
With `CCCSc1ncnc2nc[nH]c12`, the survivor count is, setting by setting: under setting [10], 5 of 6; under setting [11], 0 of 6.
Regarding `C[C@@H]1C[C@@H]([C@H](O)CC2CC(=O)NC(=O)C2)C(=O)[C@@H](C)C1`, the T/C by setting is: under setting [3], 131 % of control; under setting [4], 125 % of control.
For the compound `C[C@H]1C(=O)O[C@@H]2CCN3CC=C(COC(=O)[C@](C)(O)[C@@]1(C)O)[C@H]23`, the survivor count under setting [1] is 6 of 6.
Consider `CSc1ncnc2nc[nH]c12`, for which the T/C under setting [1] is reported as 95, 96, 100 % of control; the T/C under setting [2] is 90 and 100 % of control (2×). Also, the survivor count by setting is: under setting [1], 6 of 6; under setting [2], 6 of 6; under setting [12], 6 of 6; under setting [13], 6 of 6; (dose: 200.0 mg/kg/injection, schedule: Q01DX010 (ip), vehicle: saline) 6 of 6.
With `c1ccc(CCSc2ncnc3nc[nH]c23)cc1`, the survivor count by setting is: (dose: 7.8 mg/kg/injection, schedule: Q01DX010 (ip), vehicle: saline) 6 of 6; (dose: 62.5 mg/kg/injection, schedule: Q01DX010 (ip), vehicle: saline) 6 of 6; under setting [10], 6 of 6; under setting [11], 6 of 6.
Turning to `N#C[C@@H]1C2C=CC(CC2)[C@H]1C#N`, the survivor count by setting is: (dose: 0.25 mg/kg/injection, schedule: Q01DX010 (ip), vehicle: saline) 6 of 6; (dose: 0.5 mg/kg/injection, schedule: Q01DX010 (ip), vehicle: saline) 6 of 6; under setting [7], 6 of 6; under setting [8], 6 of 6.
On to `O=NN(CCCl)C(=O)NCCCl`, for which, under setting [1], the T/C is 145 % of control. Moreover, the survivor count is 6 of 6 under setting [2]; 4 of 6 and 5 of 6 under setting [12].
Turning to `COS(C)(=O)=O`, the survivor count is, setting by setting: under setting [1], 6 of 6; under setting [2], 6 of 6; under setting [13], 5 of 6.
`NC(Cc1ccc(N(CCCl)CCCl)cc1)C(=O)O` (stereo unspecified): the T/C by setting is: (dose: 2.5 mg/kg/injection, schedule: Q01DX010 (ip), vehicle: saline) 140 % of control; under setting [14], 136 and 143 % of control; (dose: 8.0 mg/kg/injection, schedule: Q01DX010 (ip), vehicle: other) 140 % of control; under setting [15], 125 % of control. Moreover, the survivor count is, setting by setting: under setting [15], 6 of 6; under setting [3], 6 of 6.
Take `COc1cc(-c2ccc(Nc3ccccc3C(=O)O)c(OC)c2)ccc1Nc1ccccc1C(=O)O`: the T/C under setting [1] was 127 % of control.
Consider `S=P(N1CC1)(N1CC1)N1CC1`, for which the T/C reads like this: under setting [16], 125 % of control; (dose: 3.0 mg/kg/injection, schedule: Q01DX010 (ip), vehicle: saline) 133 and 145 % of control.
Consider `[I][Hg][CH2]C1COC([CH2][Hg][I])CO1` (stereo unspecified), for which the survivor count reads like this: under setting [1], 6 of 6; under setting [12], 5 of 6; under setting [13], 5 of 6.
For `CC1CCOS(=O)O1` (stereo unspecified), the survivor count reads like this: under setting [3], 6 of 6; under setting [4], 6 of 6; under setting [5], 6 of 6.
With `Clc1ncnc2nc[nH]c12`, the survivor count (dose: 7.5 mg/kg/injection, schedule: Q01DX010 (ip), vehicle: saline) was 6 of 6; the survivor count (dose: 15.0 mg/kg/injection, schedule: Q01DX010 (ip), vehicle: saline) is on record as 6 of 6; the survivor count (dose: 30.0 mg/kg/injection, schedule: Q01DX010 (ip), vehicle: saline) is recorded as 6 of 6; the survivor count (dose: 60.0 mg/kg/injection, schedule: Q01DX010 (ip), vehicle: saline) is reported as 6 of 6.
Take `Nc1nc(=S)c2ncn(C3OC(CO)C(O)C3O)c2[nH]1` (stereo unspecified): under setting [17], the T/C is 130 % of control and the survivor count was 6 of 6.
`Cc1c2oc3c(C)ccc(C(=O)N[C@@H]4C(=O)N[C@H](C(C)C)C(=O)N5CCC[C@H]5C(=O)N(C)CC(=O)N(C)[C@@H](C(C)C)C(=O)O[C@H]4C)c3nc-2c(C(=O)N[C@@H]2C(=O)N[C@H](C(C)C)C(=O)N3CCC[C@H]3C(=O)N(C)CC(=O)N(C)[C@@H](C(C)C)C(=O)O[C@H]2C)c(N)c1=O` (I: [aThr][dV]P[Sar][NMeV] / II: [aThr][dV]P[Sar][NMeV]; ester I:1-I:C, II:1-II:C; linker I:N-II:N via Actinocin(9to1)): the T/C was 135 % of control [5 of 6 alive] (dose: 12.5 micrograms/kg/injection, schedule: Q01DX010 (ip), vehicle: other) and 125 % of control (dose: 100.0 micrograms/kg/injection, schedule: Q01DX010 (ip), vehicle: other).
Consider `Nc1ncnc2[nH]ncc12`, for which the T/C under setting [16] is 125 % of control.
`CCOC(=O)c1[nH]c2ccccc2c1CN(CCCl)CCCl`: the T/C under setting [4] was 126 % of control. Also, the survivor count under setting [5] is listed as 0 of 6.
Turning to `C1CN1c1nc(N2CC2)nc(N2CC2)n1`, the survivor count under setting [7] is listed as 6 of 6.
Regarding `Nc1nc(=S)c2[nH]cnc2[nH]1`, the T/C (dose: 5.0 mg/kg/injection, schedule: Q01DX010 (ip), vehicle: other) is 137 % of control.
Take `CN(N=O)C(N)=O`: the T/C under setting [14] is 130 % of control.
With `NC(=O)N(CCCl)N=O`, the survivor count under setting [9] is on record as 6 of 6.
For `C[C@H](N)C(=O)N[C@@H]1[C@H]2C(=C(O)C[C@@H](O)[C@@H]2O)C(=O)O[C@@H]1C`, the T/C (dose: 300.0 mg/kg/injection, schedule: Q01DX010 (ip), vehicle: saline) was 125 % of control.
Take `CN(C)CC(=O)c1ccc(O)c(O)c1`: the T/C (dose: 675.0 mg/kg/injection, schedule: Q01DX010 (ip), vehicle: saline) is 130 % of control.
